Library screening results

The values are deposited in ChEMBL (CHEMBL3988442, “University of Dundee, Small-Polar-MMV Screening Library” (2021)).

A: 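Whole-cell assay for inhibitors of Mycobacterium tuberculosis growth, labelled Cornell in the record; the read-out is not stated. The concentration is filed as 10 mM, unlikely as a test dose, so the dose is not known. Higher means stronger inhibition (inferred from two other growth screens of the library). Size under these conditions: about 53,000 compounds, about 900 of them at 50% or above in at least one test.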
B: 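Assay on Mycobacterium tuberculosis, filed only as a heat shock assay from Cornell; the read-out is not stated. The concentration is filed as 10 mM, unlikely as a test dose, so the dose is not known. The record gives no direction; compounds that gave an IC50 in retests scored well above the rest, so higher reads as stronger inhibition. About 69,000 compounds were tested under these conditions; 1.4% (about 930) showed 50% or more at least once.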

Values are the deposited “Percent Effect”, in %. The controls that fix the scale are not given in the record; negative values are as filed. This is an unselected part of the compounds tested. A dash means the value is not listed here; it may have been measured.

compound	A	B
COCCOCC(=O)N1CCC(O)(c2ccc3nc(C)ccc3c2)CC1	-53.37%	-1.079%
O=C(O)C(F)(F)F.O=C(O)C(F)(F)F.O=C(O)C(F)(F)F.[H][C@@]12CN(Cc3ccc(F)cc3)C[C@]1([H])OCCN2CCN1CCCC1	14.31%	-29.7%
O=C(O)C(F)(F)F.[H][C@@]12COC[C@]1([H])[C@H](OCc1csc(C)n1)CN2Cc1nccs1	-3.579%	-44.36%
COc1cccc(N2C(=O)CC3(CCNCC3)C2=O)c1.Cl	-4.232%	-7.609%
O=C(O)C(F)(F)F.O=C(O)C(F)(F)F.[H][C@@]12COC[C@]1(C(=O)NCCc1cccs1)CN(Cc1ccncc1)C2	-9.368%	-1.833%
CC(C)N(Cc1ccccn1)C(=O)CCC(=O)c1ccc(F)cc1F	9.211%	-29.21%
CC(=O)c1ccc(C(=O)NCCCOC(C)c2ccccc2)s1 (stereo unspecified)	-2.202%	0.9238%
Cc1cc(NC(=O)CN2CCCC2c2noc(C(C)C)n2)n(C)n1 (stereo unspecified)	-	10.24%
COc1cc(OC)cc(C(=O)NCc2nn(C)c3c2COCC3)c1	-	3.376%
[H][C@]12CC[C@]([H])(CN(c3cc(N)nc(SC)n3)C1)N(Cc1cscn1)C2=O	-7.128%	4.946%
Cc1cc(O)nc(C2CN(CC3(O)CCOCC3)CCO2)n1 (stereo unspecified)	-5.63%	-17.25%
Cc1cccc(CN2CCc3ncnc(N4CCCC4)c3CC2)n1.O=C(O)C(F)(F)F	6.012%	-30.47%
CN1CCCN(C(=O)c2ccc3c(c2)nc(N2CCOCC2)n3C)CC1	8.096%	98.19%
CCc1noc(C(C)N(C)CC(=O)Nc2cccc(C)n2)n1 (stereo unspecified)	1.417%	-17.22%
CC(=O)NCc1ccc(S(=O)(=O)NC(=O)c2ccc3c(c2)COC3)cc1	-5.407%	11.72%
O=C1CC(c2ccc(C(=O)O)cc2)c2cnn(Cc3ccco3)c2N1 (stereo unspecified)	22.23%	-10.15%
CC1CCN(C(=O)CCN2Cc3ccccc3C[C@H]2C(N)=O)C1 (stereo partly specified)	-	-206.4%
CCc1nc(C2CCCN2C(=O)c2ccc3c(c2)nnn3C)no1 (stereo unspecified)	-23.59%	-30.69%
[H][C@@]12OCCN(S(=O)(=O)C3CC3)[C@@]1([H])CC[C@H]2OCC	41.08%	-12.11%
Cc1cnc(N)c(C(=O)C2CCN(C(=O)c3cnc(C)nc3C)CC2)c1	-8.51%	-2.671%
CN(CC(=O)N1CCN(c2cnccn2)CC1)c1ccc(Cl)cn1	-	-20.29%
Cc1ccccc1N1CCCN(CC2(O)CCCNC2)CC1 (stereo unspecified)	35.05%	-13.74%
[H][C@@]12CCN(c3cc(Sc4cccs4)nc(N)n3)C[C@@]([H])(CC1)N2C	-22.04%	-3.721%
Cc1nn(C)c(C)c1OCC(=O)N1CCC(O)(C(F)(F)F)CC1	-4.723%	13.95%
CSc1cccc(CN2CCC(CCC(=O)Nc3ccccc3)CC2)c1	-4.708%	12.17%
Cc1csc(C(=O)N2CCC3(CC(N(C)c4ccncn4)C3)C2)c1 (stereo unspecified)	-	-12.04%
CCn1nc(C)c(CNC(=O)c2nnc3ccc(OC)cc3n2)c1C	-22.43%	-6.041%
O=C(O)C(F)(F)F.O=C(O)C(F)(F)F.[H][C@]12CCN(Cc3cccs3)[C@@]1([H])CC[C@@H](COc1cccnc1)O2	-	-169%
Cc1c(Cl)c(C(=O)N2CC(c3cccnc3)C2)nn1C	5.869%	14.16%
CCC1CCC(CNC(=O)c2c[nH]c(=O)c(Cl)c2)CC1 (stereo unspecified)	13.19%	-3.984%
CCc1ccc(S(=O)(=O)N2CCCn3ncnc32)s1	8.191%	-1.207%
COCC(=O)Nc1nccn1Cc1ccc(Br)cc1	26.85%	82.4%
O=C(CCN1CCC(c2cc3ccccc3[nH]2)CC1)N1CCOCC1	-14.64%	12.82%
CCC(Nc1ncnc2sc(C(=O)O)c(C)c12)c1ccnn1C (stereo unspecified)	18.61%	-4.707%
CCc1oc(C(=O)NCCc2cc(O)nc(C)n2)cc1CN1CCCC1	-36.52%	-3.044%
[H][C@@]12CS(=O)(=O)C[C@]1([H])N(Cc1ccc(CC)cc1)CCN2CCOC	-	23.2%
[H][C@@]12CCCCN(C)[C@]1([H])[C@@H](c1ccccc1)CCN2S(=O)(=O)N1CCCC1	-6.347%	-2.066%
[H][C@]12CC[C@]([H])(CN(Cc3ccccc3)C1)N(C(=O)Nc1ccccc1)C2	-	0.668%
[H][C@@]12CCN(c3cnccn3)C[C@@]1(C(=O)O)CCCN2Cc1cnn(C)c1	-8.096%	-11.46%
COc1ccc2c(c1)OCC(CNC1CCc3nc(C)nn3C1)=C2 (stereo unspecified)	16.91%	-9.228%
COCCS(=O)(=O)N1CCN(c2cccc(O)c2)CC1	8.882%	-0.8986%
CC(C(=O)NCc1ccc(N2CCCCCC2)nc1)n1cncn1 (stereo unspecified)	7.53%	-17.41%
O=C(CC1CCN(c2ncnc3ccccc23)CC1)N1CCCC1	0.6147%	-20.63%
CCCc1n[nH]c(C2CN(C(=O)c3ccco3)CCO2)n1 (stereo unspecified)	15.38%	9.827%
[H][C@@]12CCN(C(=O)c3cccs3)CC[C@@]1([H])N(S(C)(=O)=O)CCO2	33.05%	-11.57%
CCc1cnc(N)nc1N1CCN(C(C)=O)CC1	-24.81%	20.09%
CC(C)c1cc(CNC(=O)N2CCC(Cc3cnn(C)c3)C2)on1 (stereo unspecified)	11.53%	14.03%
Cc1ccc(O)c(C(=O)NCCCS(=O)(=O)Cc2ccccc2)c1	-	1.233%
CS(=O)(=O)N1CC2(CCN(c3nccs3)CC2)c2ccccc21	6.061%	-4.62%